Measured values as given in US8932579B2, “Biological effects of compositions comprising rosmarinic acid” (Nestec S.A., priority 2006, dated 2015).

Tested on: chlorogenate esterase
Assay: Cleavage of rosmarinic acid by enzymes (chlorogenate esterase hydrolysis)
Format: biochemical
Settings: for rosmarinic acid hydrolysed: 0.02 units of enzyme, pH 6.6, after 4 h

For `O=C(/C=C/c1ccc(O)c(O)c1)O[C@H](Cc1ccc(O)c(O)c1)C(=O)O` [rosmarinic acid], the rosmarinic acid hydrolysed (1 mg substrate, 40° C.) was “more than 90%”, the rosmarinic acid hydrolysed (6 mg substrate, 40° C.) was 40% and the hydrolysis (0.02 U/mg, pH 5.0) was “no hydrolysis was observed”. For the same compound, the “transformation of rosmarinic acid” value (0.02 U/mg, pH 8.0, after 2 h) was “completely transformed” and the “transformation into caffeic acid and 3,4-dihydroxy phenyllacetic acid” value (1 U/mg of substrate, phosphate buffer pH 6.6, 40° C., after 30 min) was “completely transformed”.
